Experimental data reported in publication PMC6446853.
No constants are given. Whether binding was seen depends on the method and setting. In cells and extracts the contact can be indirect. These calls come from enrichment with a bait or labelling near it, and not all partners need be listed.

Amino acid sequences for entries named in this document (tags omitted).
UniProt P14635: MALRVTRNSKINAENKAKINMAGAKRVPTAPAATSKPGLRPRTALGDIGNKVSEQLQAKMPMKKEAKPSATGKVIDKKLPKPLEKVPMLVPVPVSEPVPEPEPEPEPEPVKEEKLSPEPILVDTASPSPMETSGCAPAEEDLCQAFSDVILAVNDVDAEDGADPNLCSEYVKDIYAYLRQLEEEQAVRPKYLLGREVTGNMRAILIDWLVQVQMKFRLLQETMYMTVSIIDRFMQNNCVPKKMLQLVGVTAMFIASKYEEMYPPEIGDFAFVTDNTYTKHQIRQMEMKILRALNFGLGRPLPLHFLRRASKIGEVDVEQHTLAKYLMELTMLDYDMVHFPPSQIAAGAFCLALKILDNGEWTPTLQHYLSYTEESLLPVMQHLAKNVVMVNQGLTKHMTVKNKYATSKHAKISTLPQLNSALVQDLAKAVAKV

B1: CDK-inhibitor p57^KIP2 (CDKN1C) (protein, UniProt P49918 1-316)
chain: MSDASLRSTSTMERLVARGTFPVLVRTSACRSLFGPVDHEELSRELQARLAELNAEDQNRWDYDFQQDMPLRGPGRLQWTEVDSDSVPAFYRETVQVGRCRLLLAPRPVAVAVAVSPPLEPAAESLDGLEEAPEQLPSVPVPAPASTPPPVPVLAPAPAPAPAPVAAPVAAPVAVAVLAPAPAPAPAPAPAPAPVAAPAPAPAPAPAPAPAPAPAPDAAPQESAEQGANQGQRGQEPLADQLHSGISGRPAAGTAAASANGAAIKKLSGPLISDFFAKRKRSAPEKSSGDVPAPCPSPSAAPGVGSVEQTPRKRLR
B2: MAD1 (endogenous) (protein, UniProt Q9Y6D9 1-718)
chain: MEDLGENTMVLSTLRSLNNFISQRVEGGSGLDISTSAPGSLQMQYQQSMQLEERAEQIRSKSHLIQVEREKMQMELSHKRARVELERAASTSARNYEREVDRNQELLTRIRQLQEREAGAEEKMQEQLERNRQCQQNLDAASKRLREKEDSLAQAGETINALKGRISELQWSVMDQEMRVKRLESEKQELQEQLDLQHKKCQEANQKIQELQASQEARADHEQQIKDLEQKLSLQEQDAAIVKNMKSELVRLPRLERELKQLREESAHLREMRETNGLLQEELEGLQRKLGRQEKMQETLVGLELENERLLAKLQSWERLDQTMGLSIRTPEDLSRFVVELQQRELALKDKNSAVTSSARGLEKARQQLQEELRQVSGQLLEERKKRETHEALARRLQKRVLLLTKERDGMRAILGSYDSELTPAEYSPQLTRRMREAEDMVQKVHSHSAEMEAQLSQALEELGGQKQRADMLEMELKMLKSQSSSAEQSFLFSREEADTLRLKVEELEGERSRLEEEKRMLEAQLERRALQGDYDQSRTKVLHMSLNPTSVARQRLREDHSQLQAECERLRGLLRAMERGGTVPADLEAAAASLPSSKEVAELKKQVESAELKNQRLKEVFQTKIQEFRKACYTLTGYQIDITTENQYRLTSLYAEHPGDCLIFKATSPSGSKMQLLETEFSHTVGELIEVHLRRQDSIPAFLSSLTLELFSRQTVA

Legend:
[1] = molecular target: CCNB1-mCherry (cyclin B1 tagged at the endogenous locus) (human (endogenous in HeLa)) (UniProt P14635); test: affinity purification with mass spectrometry; CCNB1-mCherry or CCNB1-GFP precipitated with sheep anti-mCherry or anti-GFP antibodies and protein G-sepharose (2 h, 4°C) from lysates of HeLa cells arrested with 0.3 µM nocodazole for 16 h; parental HeLa as control; 20 mM Tris-HCl pH 7.4, 150 mM NaCl, 1% Igepal CA-630, 0.1% sodium deoxycholate; eluted with glycine pH 2.6
[2] = molecular target: CCNB1-GFP (cyclin B1 tagged at the endogenous locus) (human (endogenous in HeLa)) (UniProt P14635); test: as above

Row | Binder | binding [1] | binding [2]
1 | B1 | binds | –
2 | B2 | binds | binds
